The structures appear in SMILES notation. Like-named read-outs stand apart in the source and are kept apart here. Structures were worked out from names or drawings and are uncertain.

Sequences of proteins named here, by UniProt entry; tags and fusion partners are left off. Residues count along the entry.
UniProt Q07820, 171-327 limits assumed: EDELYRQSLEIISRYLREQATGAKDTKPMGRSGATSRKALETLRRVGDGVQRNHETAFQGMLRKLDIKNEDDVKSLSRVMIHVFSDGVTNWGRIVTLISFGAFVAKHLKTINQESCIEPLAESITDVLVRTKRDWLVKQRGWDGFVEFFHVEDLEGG

Assay [1] deals with Mcl-1/Bim interaction, recombinant human Mcl-1 (171-327) (Homo sapiens, UniProt Q07820). In words: Cell free Mcl-1: Bim Affinity Assay (Mcl-1 HTRF). It counts as binding. Conditions: read-out: Mcl-1 HTRF.
In assay [2] the test system is OPM-2 human multiple myeloma cell line. In words: Cell Viability Assay (OPM-2 10 FBS). It counts as cell-based.
[3] abbreviates: cell free Mcl-1:Bim TR-FRET, recombinant human Mcl-1 (171-327).
[4] abbreviates: TR-FRET, 0.1 nM Mcl-1 (171-327), 0.05 nM biotin-Bim (51-76).
Where [5] appears, read: read-out: OPM-2 10% FBS, OPM-2 cells, 16 h, CellTiter-Glo.

Regarding `O=C1NS(=O)(=O)CCC(O)C(O)C[C@H](O)[C@@H]2CC[C@H]2CN2C[C@@]3(CCCc4cc(Cl)ccc43)COc3ccc1cc32` (stereo partly drawn), the IC50 in assay [1] (setting [3]) came out at 4.38 nM.

Regarding `O=C1NS(=O)(=O)C2CCC[C@H](C2)[C@@H](O)[C@@H]2CC[C@H]2CN2C[C@@]3(CCCc4cc(Cl)ccc43)COc3ccc1cc32` (single isomer, unassigned), the IC50 in assay [1] (setting [4]) turned out to be 0.751 nM; in assay [2] (setting [5]), 2960 nM.

Regarding `CO[C@H]1/C=C/[C@H](CC(C)O)C[C@@H](C)S(=O)(=O)NC(=O)c2ccc3c(c2)N(C[C@@H]2CC[C@H]21)C[C@@]1(CCCc2cc(Cl)ccc21)CO3` (stereo partly drawn), the IC50 turned out to be 3.17 nM in assay [1] (setting [4]) and 3290 nM in assay [2] (setting [5]).

Regarding `CC(=O)O[C@H]1/C=C/CC(C2CC2)CS(=O)(=O)NC(=O)c2ccc3c(c2)N(C[C@@H]2CC[C@H]21)C[C@@]1(CCCc2cc(Cl)ccc21)CO3` (stereo partly drawn), the IC50 in assay [1] (setting [3]) stood at 19.6 nM; in assay [2] (setting [5]), 19000 nM.

For the compound `O=C1NS(=O)(=O)CC(CO)CCCC[C@H](O)[C@@H]2CC[C@H]2CN2C[C@@]3(CCCc4cc(Cl)ccc43)COc3ccc1cc32` (stereo partly drawn), the IC50 in assay [1] (setting [3]) came to 8.21 nM.

Regarding `O=C1NS(=O)(=O)N(CC2CO2)CC/C=C/[C@H](O)[C@@H]2CC[C@H]2CN2C[C@@]3(CCCc4cc(Cl)ccc43)COc3ccc1cc32` (stereo partly drawn), the IC50 worked out at 0.2 nM in assay [1] (setting [4]) and 54.1 nM in assay [2] (setting [5]).

As for `CC1/C=C/C(=O)[C@@H]2CC[C@H]2CN2C[C@@]3(CCCc4cc(Cl)ccc43)COc3ccc(cc32)C(=O)NS(=O)(=O)[C@H](C)[C@H]1C` (stereo partly drawn), the IC50 in assay [1] (setting [4]) turned out to be 5.55 nM; in assay [2] (read-out: OPM-2 10% FBS, OPM-2 cells, 16 h incubation, CellTiter-Glo), 5710 nM.

For the origin of these results see US12091425B2 (AMGEN INC., priority 2016, dated 2024).
